Source: the supplement of paper PMC5355238
Structures can show the parent of a compound that is named as a salt. ± gives the standard deviation of the averaged measurements. The list shows a part of the results. Many values rest on one well or one pass, so single values are uncertain.

These molecules were tested on Reh (assay: S-phase gammaH2AX median, Z-score vs plate median (drug alone); higher = more S-phase DNA damage). Conditions: MK1775 concentration 0 nM; 10 µM; 4 h.

| SMILES | S-phase gammaH2AX median (Z-score) |
| --- | --- |
| COc1ccc2c(c1)[C@@]13CCCC[C@H]1[C@@H](C2)NCC3 [3-Methoxy-morphanin hydrochloride] | -0.0639 |
| COc1cc2c(c(OC)c1OC)-c1ccc(OC)c(=O)cc1[C@@H](NC(C)=O)CC2 [Colchicine] | -0.0175 |
| CC(C)C1CNC(C(=O)O)C1CC(=O)O (configuration not stated) [Dihydrokainic acid] | -0.00945 |
| CC[C@@H](CO)NC(=O)[C@@H]1C=C2c3cccc4c3c(cn4C)C[C@H]2N(C)C1 [Methysergide maleate] | 0.132 |
| CCCN(CCC)[C@H]1CCc2c(F)ccc(O)c2C1 [S(-)-UH-301 hydrochloride] | -0.174 |
| c1ccc2c(c1)OCC(C1=NCCN1)O2 (configuration not stated) [Idazoxan hydrochloride] | 0.302 |
| C[C@]12CC[C@@H](O)C[C@@H]1CC[C@@H]1[C@@H]2CC[C@]2(C)[C@@H](C(=O)CO)CC[C@@H]12 [3-alpha,21-Dihydroxy-5-alpha-pregnan-20-one] | -0.0851 |
| C/C=C(/C)C(=O)O[C@H]1C(C)=C2[C@H]([C@@H]1OC(=O)CCCCCCC)[C@@](C)(OC(C)=O)C[C@H](OC(=O)CCC)[C@@]1(O)[C@H]2OC(=O)[C@@]1(C)O [Thapsigargin] | -0.434 |
| COC(=O)c1cc2c(cn1)[nH]c1ccccc12 [Methyl beta-carboline-3-carboxylate] | -0.00945 |
| C[C@@H]1O[C@@H](O[C@H]2C[C@@H](O)[C@]3(CO)[C@H]4[C@H](O)C[C@]5(C)[C@@H]([C@@H]6COC(=O)C6)CC[C@]5(O)[C@@H]4CC[C@]3(O)C2)[C@H](O)[C@H](O)[C@H]1O [Dihydroouabain] | -0.101 |
| CCCN1CCO[C@@H]2c3cc(O)ccc3OC[C@H]21 [S(+)-PD 128,907 hydrochloride] | 0.0284 |
| O=C(O)Cc1cnc[nH]1 [Imidazole-4-acetic acid hydrochloride] | 0.107 |
| O=C(O)[C@@H]1CCN1 [L-azetidine-2-carboxylic acid] | 0.0505 |
| CC(=O)OCC1=C(C(=O)[O-])N2C(=O)[C@@H](NC(=O)CCC[C@@H](N)C(=O)[O-])[C@H]2SC1.[Zn+2] [Cephalosporin C zinc salt] | -0.0388 |
| CN1C(=O)CCS(=O)(=O)C1c1ccc(Cl)cc1 (configuration not stated) [Chlormezanone] | 0.0175 |
| CCCn1c(C)c(C(=O)c2cccc3ccccc23)c2ccccc21 | -0.183 |
| O=P1(N(CCCl)CCCl)NCCCO1 (configuration not stated) [Cyclophosphamide monohydrate] | -0.0363 ± 0.026 |
| O=C1C=CC(=O)C=C1 [p-Benzoquinone] | -0.0621 |
| COc1ccc2c(c1OC)C(=O)OC2C1c2cc3c(cc2CCN1C)OCO3 (single isomer, unassigned; (+)) [(+)-Hydrastine] | -0.0882 |
| C=C1C[C@@H]2[C@H](CC[C@]3(C)C(=O)CC[C@@H]23)[C@@]2(C)C=CC(=O)C=C12 [Exemestane] | 0.164 |
| CC(=O)[C@H]1CC[C@H]2[C@@H]3CC[C@H]4C[C@H](O)CC[C@]4(C)[C@H]3C(=O)C[C@]12C [5alpha-Pregnan-3alpha-ol-11,20-dione] | -0.158 |
| CC(=O)c1c(O)c(C)c(O)c(Cc2c(O)c3c(c(C(=O)/C=C/c4ccccc4)c2O)OC(C)(C)C=C3)c1O [Rottlerin] | 0.151 |
| COc1ccccc1N1CCNCC1 [1-(2-Methoxyphenyl)piperazine hydrochloride] | 0.3 |
| O=C(O)c1cc[c]([Hg][Cl])cc1 [4-Chloromercuribenzoic acid] | 0.0524 |

| SMILES | S-phase gammaH2AX median (Z-score) |
| --- | --- |
| CC1=NN=C(c2ccc(N)cc2)c2cc3c(cc2C1)OCO3 | -0.173 |
| CCCC(C)(COC(N)=O)COC(=O)NC(C)C (configuration not stated) [Carisoprodol] | -0.0854 |
| C[C@@]12C(=O)OC(=O)[C@]1(C)[C@H]1CC[C@@H]2O1 [Cantharidin] | 0.328 |
| C/C(O)=C(\C#N)C(=O)Nc1cc(Br)ccc1Br | 0.137 |
| NC1CCc2cc(O)c(O)cc2C1 (configuration not stated) [6,7-ADTN hydrobromide] | -0.0441 |
| C[C@]12CCC(=O)C=C1CC[C@@H]1[C@@H]2CC[C@]2(C)C(=O)CC[C@@H]12 [4-Androstene-3,17-dione] | -0.0233 |
| CC(O)C(C)OC(=O)[C@@H]1C[C@@H]2c3cccc4c3c(cn4C(C)C)C[C@H]2N(C)C1 (some centres not stated) [LY-53,857 maleate] | -0.00473 |
| CCCC[N+]1(C)[C@@H]2C[C@@H](OC(=O)[C@H](CO)c3ccccc3)C[C@H]1[C@@H]1O[C@@H]12 (single isomer, unassigned; (-)) [(-)-Scopolamine,n-Butyl-, bromide] | -0.227 |
| c1ccc2sc(C3(N4CCCCC4)CCCCC3)cc2c1 [BTCP hydrochloride] | -0.068 |
| N#C/C(=C\c1ccc(O)c(O)c1)C(N)=S [Tyrphostin 47] | 0.567 |
| C[N+]1(C)C2CCC1CC(OC(=O)c1c[nH]c3ccccc13)C2 (configuration not stated) [3-Tropanylindole-3-carboxylate methiodide] | -0.474 |
| C[C@H]1OC[C@@H](C[N+](C)(C)C)O1 [(+)-cis-Dioxolane iodide] | 0.00194 |
| COc1ccc(OC)c(C(O)C(C)N)c1 (configuration not stated) [Methoxamine hydrochloride] | 0.00473 |
| Clc1ccc(N2CCN(Cc3c[nH]c4ncccc34)CC2)cc1 [L-745,870 hydrochloride] | -0.0993 |
| CCn1cnc2c(Nc3cccc(Cl)c3)nc(N[C@@H]3CCCC[C@@H]3N)nc21 | -0.196 |
| NCCCNCCSP(=O)(O)O [Amifostine] | 0.0621 |
| O=S1(=O)N(CCN2CC=C(c3c[nH]c4cc(F)ccc34)CC2)c2cccc3c2N1CCC3 | -0.183 |
| N#CC(C#N)=Cc1ccc([N+](=O)[O-])c(O)c1 [Tyrphostin AG 126] | -0.507 |
| CCCCCCCCC(=O)NCc1ccc(O)c(OC)c1 [N-Vanillylnonanamide] | -1.05 |
| NCCc1c[nH]c2ccc(C(N)=O)cc12 [5-Carboxamidotryptamine maleate] | 0.0291 |
| Cc1cc2c(C(C)C)c(O)c(O)c(C=O)c2c(O)c1-c1c(C)cc2c(C(C)C)c(O)c(O)c(C=O)c2c1O [Gossypol] | -0.0522 |
| O=c1[nH]c2ccccc2n1C1CCN(CCCC(c2ccc(F)cc2)c2ccc(F)cc2)CC1 [Pimozide] | -0.0899 |
| C=CCN1CC[C@]23CCCC[C@H]2[C@H]1Cc1ccc(O)cc13 [Levallorphan tartrate] | -0.102 |
| CC(=O)NCCc1c[nH]c2ccccc12 [N-Acetyltryptamine] | 0.0214 |

A portion from the list above, as a working copy:

| SMILES | S-phase gammaH2AX median (Z-score) |
| --- | --- |
| C[N+]1(C)C2CCC1CC(OC(=O)c1c[nH]c3ccccc13)C2 (configuration not stated) [3-Tropanylindole-3-carboxylate methiodide] | -0.474 |
| C[C@H]1OC[C@@H](C[N+](C)(C)C)O1 [(+)-cis-Dioxolane iodide] | 0.00194 |

(further entries)

| SMILES | S-phase gammaH2AX median (Z-score) |
| --- | --- |
| CC1=C2C[C@H]3[C@@H](CC=C4C[C@@H](O)CC[C@@]43C)[C@@H]2CC[C@]12O[C@@H]1C[C@H](C)CN[C@H]1[C@H]2C [Cyclopamine] | -0.0708 |
| CC(N)c1cccc(Cl)c1Cl (stereo not drawn) [(?)-2,3-Dichloro-alpha-methylbenzylamine hydrochloride] | -0.0283 |
| CCc1c(C(=O)OC)ncc2[nH]c3cc(OC)c(OC)cc3c12 [Methyl 6,7-dimethoxy-4-ethyl-beta-carboline-3-carboxylate] | -0.104 |
| CN(C)C(=O)Oc1ccc[n+](C)c1 [Pyridostigmine bromide] | -0.0686 |
| CN(C)C(=O)Oc1cccc([N+](C)(C)C)c1 [Neostigmine bromide] | -0.818 |
| CNC(=O)Oc1ccc2c(c1)[C@]1(C)CCN(C)[C@@H]1N2C [(-)-Physostigmine] | 0.101 |
| Cc1o[nH]c(=O)c1CC(N)C(=O)O (configuration not stated) [(?)-AMPA hydrobromide] | 0.132 |
| CCN(CCCl)Cc1ccccc1Br [DSP-4 hydrochloride] | -0.0233 |
| CP(=O)(O)CCCN | 0.0291 |
| O=C(CCCN1CCC2(CC1)C(=O)N(CCc1ccc(N=C=S)cc1)CN2c1ccccc1)c1ccc(F)cc1 [N-(p-Isothiocyanatophenethyl)spiperone hydrochloride] | -0.194 |
| CNC(=O)OCC[N+](C)(C)C [Methylcarbamylcholine chloride] | -0.0639 |
| CN1[C@@H]2CC[C@H]1C[C@@H](OC(=O)C(CO)c1ccccc1)C2 (some centres not stated) [Atropine sulfate] | -0.211 |
| c1ccc(CCCN2CCN(CCOC(c3ccccc3)c3ccccc3)CC2)cc1 | -0.23 |
| CC(C)C[C@H]1C(=O)N2CCC[C@H]2[C@]2(O)O[C@](NC(=O)[C@@H]3C=C4c5cccc6[nH]c(Br)c(c56)C[C@H]4N(C)C3)(C(C)C)C(=O)N12 [(+)-Bromocriptine methanesulfonate] | 0.00194 |
| O=C(OC1CCN(CCCl)CC1)C(c1ccccc1)c1ccccc1 [4-Diphenylacetoxy-N-(2-chloroethyl)piperidine hydrochloride] | 0.532 |
| C=CCN1CC[C@]23c4c5ccc(O)c4O[C@H]2/C(=N/N=C2\CC[C@@]4(O)[C@H]6Cc7ccc(O)c8c7[C@@]4(CCN6CC=C)[C@H]2O8)CC[C@@]3(O)[C@H]1C5 [Naloxonazine dihydrochloride] | 0.166 |
| O=C(Cc1ccc(Cl)c(Cl)c1)N1CCCCC1CN1CCCC1 (configuration not stated) | -0.254 |
| C#CCOC(=O)C1=CCCN(C)C1 [Arecaidine propargyl ester hydrobromide] | -0.0175 |
| CNCC(O)c1ccc(O)cc1 (configuration not stated) [(?)-Synephrine] | 0.147 |
| Nc1ncnc2c1ncn2C1OC2COP(O)(=S)O[C@@H]2[C@@H]1O (some centres not stated) [Rp-cAMPS triethylamine] | -0.0466 |
| NCC(CP(=O)(O)O)c1ccc(Cl)cc1 (configuration not stated) [Phaclofen] | 0.0544 |
| N[C@@H](Cn1cc(I)c(=O)[nH]c1=O)C(=O)O [S-5-Iodowillardiine] | -0.34 |
| C[C@]12CCC(=O)C(O)=C1CC[C@@H]1[C@@H]2CC[C@]2(C)C(=O)CC[C@@H]12 [Formestane] | 0.156 |
| c1ccc(C2CC2)c(OCC2=NCCN2)c1 [Cirazoline hydrochloride] | -0.0757 |

Four of these compounds in another layout:
SMILES	S-phase gammaH2AX median (Z-score)
O=C(O)Cc1cnc[nH]1 [Imidazole-4-acetic acid hydrochloride]	0.107
C[N+]1(C)C2CCC1CC(OC(=O)c1c[nH]c3ccccc13)C2 (configuration not stated) [3-Tropanylindole-3-carboxylate methiodide]	-0.474
Cc1o[nH]c(=O)c1CC(N)C(=O)O (configuration not stated) [(?)-AMPA hydrobromide]	0.132
O=C(Cc1ccc(Cl)c(Cl)c1)N1CCCCC1CN1CCCC1 (configuration not stated)	-0.254
